This passage reports binding results from publication doi:10.1101/2024.08.18.608516.

Chains of the proteins cited; added tags and fusions are not shown.
UniProt Q8IXJ9: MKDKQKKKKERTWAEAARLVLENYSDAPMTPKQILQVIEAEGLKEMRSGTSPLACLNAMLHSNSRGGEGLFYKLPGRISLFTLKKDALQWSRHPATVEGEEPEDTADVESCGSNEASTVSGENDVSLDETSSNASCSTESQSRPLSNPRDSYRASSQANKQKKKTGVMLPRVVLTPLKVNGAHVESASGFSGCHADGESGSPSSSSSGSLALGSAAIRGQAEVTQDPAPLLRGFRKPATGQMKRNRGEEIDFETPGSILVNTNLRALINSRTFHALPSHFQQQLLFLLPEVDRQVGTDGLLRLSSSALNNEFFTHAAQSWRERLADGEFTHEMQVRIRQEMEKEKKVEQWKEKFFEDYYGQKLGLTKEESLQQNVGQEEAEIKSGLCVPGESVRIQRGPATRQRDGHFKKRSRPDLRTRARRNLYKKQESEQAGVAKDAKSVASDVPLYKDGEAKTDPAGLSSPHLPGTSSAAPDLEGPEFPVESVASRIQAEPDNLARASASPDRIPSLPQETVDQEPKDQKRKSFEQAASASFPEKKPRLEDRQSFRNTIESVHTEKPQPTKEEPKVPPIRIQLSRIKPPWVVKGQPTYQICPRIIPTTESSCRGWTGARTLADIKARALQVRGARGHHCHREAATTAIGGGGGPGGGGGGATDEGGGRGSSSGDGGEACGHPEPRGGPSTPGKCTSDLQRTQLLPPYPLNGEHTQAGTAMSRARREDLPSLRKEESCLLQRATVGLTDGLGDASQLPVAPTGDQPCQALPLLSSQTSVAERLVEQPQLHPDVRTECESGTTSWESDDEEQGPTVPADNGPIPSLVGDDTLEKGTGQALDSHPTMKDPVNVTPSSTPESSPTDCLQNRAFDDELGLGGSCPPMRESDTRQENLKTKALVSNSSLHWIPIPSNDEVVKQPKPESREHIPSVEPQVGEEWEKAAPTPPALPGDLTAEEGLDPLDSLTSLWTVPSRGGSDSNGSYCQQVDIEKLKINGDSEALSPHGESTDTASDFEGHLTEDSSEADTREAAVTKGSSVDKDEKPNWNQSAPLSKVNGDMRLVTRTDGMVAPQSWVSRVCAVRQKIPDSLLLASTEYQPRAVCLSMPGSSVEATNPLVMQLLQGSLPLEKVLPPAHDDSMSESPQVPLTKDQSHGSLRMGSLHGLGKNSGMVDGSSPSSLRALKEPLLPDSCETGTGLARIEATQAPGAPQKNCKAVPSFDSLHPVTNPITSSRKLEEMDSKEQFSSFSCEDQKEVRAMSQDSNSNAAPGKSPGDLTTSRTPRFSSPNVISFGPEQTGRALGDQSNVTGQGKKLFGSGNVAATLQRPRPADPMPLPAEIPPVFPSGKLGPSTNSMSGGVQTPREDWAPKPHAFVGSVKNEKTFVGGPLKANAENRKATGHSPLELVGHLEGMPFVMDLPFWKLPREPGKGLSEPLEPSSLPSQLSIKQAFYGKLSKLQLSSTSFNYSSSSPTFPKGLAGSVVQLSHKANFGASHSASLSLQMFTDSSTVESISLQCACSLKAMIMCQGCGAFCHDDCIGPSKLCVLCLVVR
UniProt P51617: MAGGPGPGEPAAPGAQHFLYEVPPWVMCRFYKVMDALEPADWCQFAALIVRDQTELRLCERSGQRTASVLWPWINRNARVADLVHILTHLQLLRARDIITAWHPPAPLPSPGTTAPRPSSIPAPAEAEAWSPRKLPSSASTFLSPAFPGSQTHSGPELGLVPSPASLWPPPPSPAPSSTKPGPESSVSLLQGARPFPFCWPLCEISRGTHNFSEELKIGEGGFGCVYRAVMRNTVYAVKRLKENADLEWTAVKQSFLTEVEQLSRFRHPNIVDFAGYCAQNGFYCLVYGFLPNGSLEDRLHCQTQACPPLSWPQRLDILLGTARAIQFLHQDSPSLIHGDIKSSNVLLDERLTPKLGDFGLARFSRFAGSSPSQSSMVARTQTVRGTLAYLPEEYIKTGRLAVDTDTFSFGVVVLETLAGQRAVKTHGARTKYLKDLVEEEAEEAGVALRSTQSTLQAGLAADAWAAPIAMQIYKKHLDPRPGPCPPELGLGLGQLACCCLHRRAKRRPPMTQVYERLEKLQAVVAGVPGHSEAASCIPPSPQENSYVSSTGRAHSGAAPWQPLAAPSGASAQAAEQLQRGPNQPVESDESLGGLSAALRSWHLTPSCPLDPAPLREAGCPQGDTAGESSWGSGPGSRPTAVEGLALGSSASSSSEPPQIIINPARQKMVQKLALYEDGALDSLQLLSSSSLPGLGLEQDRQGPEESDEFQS

One test concerns the target T1, FLAG-Traf6 (mouse) (UniProt P70196).
T1 sequence: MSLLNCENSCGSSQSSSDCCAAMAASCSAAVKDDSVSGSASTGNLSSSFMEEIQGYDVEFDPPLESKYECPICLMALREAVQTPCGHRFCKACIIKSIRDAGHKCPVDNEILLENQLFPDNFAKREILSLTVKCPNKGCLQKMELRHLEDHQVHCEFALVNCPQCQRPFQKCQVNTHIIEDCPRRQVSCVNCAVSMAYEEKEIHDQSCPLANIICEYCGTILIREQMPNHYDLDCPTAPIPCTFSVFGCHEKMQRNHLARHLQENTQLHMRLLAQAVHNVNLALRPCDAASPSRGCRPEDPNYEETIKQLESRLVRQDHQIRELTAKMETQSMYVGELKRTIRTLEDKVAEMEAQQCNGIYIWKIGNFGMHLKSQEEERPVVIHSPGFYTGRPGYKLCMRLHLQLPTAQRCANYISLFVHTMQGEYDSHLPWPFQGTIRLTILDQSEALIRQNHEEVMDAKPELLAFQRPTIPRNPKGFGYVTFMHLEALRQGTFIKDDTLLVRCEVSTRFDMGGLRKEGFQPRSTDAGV
The experiment in a line: co-IP.

Another test has as its target T2, FLAG-Tak1 (mouse) (UniProt Q62073).
T2 sequence: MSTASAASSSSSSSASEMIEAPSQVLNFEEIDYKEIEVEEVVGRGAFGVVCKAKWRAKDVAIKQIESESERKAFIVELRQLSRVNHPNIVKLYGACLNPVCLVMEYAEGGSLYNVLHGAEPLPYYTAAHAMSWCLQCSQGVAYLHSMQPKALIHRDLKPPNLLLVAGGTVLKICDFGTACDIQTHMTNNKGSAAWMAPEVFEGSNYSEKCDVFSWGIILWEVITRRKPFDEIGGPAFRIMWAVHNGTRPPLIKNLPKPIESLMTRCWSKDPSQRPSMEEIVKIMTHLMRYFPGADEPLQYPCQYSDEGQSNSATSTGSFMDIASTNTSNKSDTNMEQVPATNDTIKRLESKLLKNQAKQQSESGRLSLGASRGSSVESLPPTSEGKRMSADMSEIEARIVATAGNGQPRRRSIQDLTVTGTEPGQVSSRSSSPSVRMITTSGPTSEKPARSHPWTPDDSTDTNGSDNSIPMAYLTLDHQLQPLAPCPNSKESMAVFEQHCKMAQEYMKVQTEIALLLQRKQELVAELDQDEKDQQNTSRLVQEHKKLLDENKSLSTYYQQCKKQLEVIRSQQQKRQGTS
The experiment in a line: co-IP.

No constants are given. Whether binding was seen depends on the method and setting. Binding seen in cells or lysates may run through a third protein. Some entries that bind do so weakly or less than the wild type. Where a sequence is shown, tags or fusion partners need not be part of it.

With “Myc-ASXL1-WT (from UniProt Q8IXJ9 1-1541)”, in the test with FLAG-Traf6 (mouse), the binding result is “binds”. For the substance HA-IRAK1 (from UniProt P51617 1-712), the binding result with FLAG-Tak1 (mouse) is on record as “binds”.
